Measured values: publication PMC6824563
No constants are given. Whether binding was seen depends on the method and setting. In cells and extracts the contact can be indirect. Some entries that bind do so weakly or less than the wild type. Sequences can lack the tags named with a protein.

Legend:
[1] = target: T1, HA::CEH-60::VC155 (CEH-60, C. elegans homeobox 60, PBC-class Hox cofactor) (C. elegans) (UniProt Q45EK2); assay: co-IP; anti-HA agarose beads with lysate of the heat-shock inducible BiFC strains (at least 4 mg worm protein), 4°C overnight; lysis buffer 25 mM Tris-HCl pH 7.5, 100 mM NaCl, 1 mM EDTA, 0.5% NP-40; western blot with anti-HA and anti-MYC
T1 sequence: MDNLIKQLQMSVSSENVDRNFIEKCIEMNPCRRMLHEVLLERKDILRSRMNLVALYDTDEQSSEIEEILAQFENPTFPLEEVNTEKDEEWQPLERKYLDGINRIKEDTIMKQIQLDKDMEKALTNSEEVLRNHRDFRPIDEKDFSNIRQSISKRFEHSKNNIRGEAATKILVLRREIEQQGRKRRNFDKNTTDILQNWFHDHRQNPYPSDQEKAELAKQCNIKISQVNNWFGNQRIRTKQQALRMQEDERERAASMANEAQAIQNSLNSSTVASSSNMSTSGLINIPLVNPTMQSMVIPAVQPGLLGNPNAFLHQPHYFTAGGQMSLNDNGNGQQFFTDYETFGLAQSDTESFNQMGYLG

[2] = target: T2, HA::CEH-20::VC155 (CEH-20, PBC-class Hox cofactor) (C. elegans) (UniProt P41779); assay: as above
T2 sequence: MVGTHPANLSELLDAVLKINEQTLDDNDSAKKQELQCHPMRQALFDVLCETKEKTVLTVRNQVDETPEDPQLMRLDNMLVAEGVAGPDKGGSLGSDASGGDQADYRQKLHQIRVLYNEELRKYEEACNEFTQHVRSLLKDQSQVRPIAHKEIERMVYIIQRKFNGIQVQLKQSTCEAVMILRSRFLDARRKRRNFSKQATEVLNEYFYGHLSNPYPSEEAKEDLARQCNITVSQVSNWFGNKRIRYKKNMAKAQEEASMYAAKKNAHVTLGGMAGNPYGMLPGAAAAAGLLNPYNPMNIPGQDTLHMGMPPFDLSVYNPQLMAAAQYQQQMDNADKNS

[3] = target: T1, HA::CEH-60::VC155 (CEH-60, C. elegans homeobox 60, PBC-class Hox cofactor) (C. elegans); assay: split reporter; BiFC with Venus halves (VN173 on UNC-62, VC155 on the partner) under the heat-shock promoter hsp-16.41p in living day 1 adult C. elegans; heat shock 2 hours at 33°C, imaged 5-6 hours later; fluorescence quantified in 6 intestinal nuclei per animal
[4] = target: T2, HA::CEH-20::VC155 (CEH-20, PBC-class Hox cofactor) (C. elegans); assay: as above
[5] = target: T1, HA::CEH-60::VC155 (CEH-60, C. elegans homeobox 60, PBC-class Hox cofactor) (C. elegans); assay: split reporter; BiFC with Venus halves under the endogenous promoters (unc-62p, ceh-60p) in living C. elegans; no heat shock; signal in intestinal nuclei of adults

Measured: binding

B1: MYC::UNC-62::VN173 (UNC-62, uncoordinated 62, MEIS-class transcription factor) (protein, UniProt Q9N5D6 1-564)
chain: MSGDSKVWAHASADTWAVQNGISTYDLDTSSIKREKRDHNEQFNDGYGPPPGSASADPASYIADPAAFYNLYTNMGGAPTSTPMMHHEMGEAMKRDKESIYAHPLYPLLVLLFEKCELATSTPRDTSRDGSTSSDVCSSASFKDDLNEFVRHTQENADKQYYVPNPQLDQIMLQSIQMLRFHLLELEKVHELCDNFCNRYVVCLKGKMPLDIVGDERASSSQPPMSPGSMGHLGHSSSPSMAGGATPMHYPPPYEPQSVPLPENAGVMGGHPMEGSSMAYSMAGMAAAAASSSSSSNQAGDHPLANGGTLHSTAGASQTLLPIAVSSPSTCSSGGLRQDSTPLSGETPMGHANGNSMDSISEAGDEFSVCGSNDDGRDSVLSDSANGSQNGKRKVPKVFSKEAITKFRAWLFHNLTHPYPSEEQKKQLAKETGLTILQVNNWFINARRRIVQPMIDQNNRAGRSGQMNVCKNRRRNRSEQSPGPSPDSGSDSGANYSPDPSSLAASTAMPYPAEFYMQRTMPYGGFPSFTNPAMPFMNPMMGFQVAPTVDALSQQWVDLSAPHE
binds: all assays above
